From the supplement of paper PMC12823440, “Inhibitors supercharge kinase turnover through native proteolytic circuits” (Nature, 2025)
The list shows a part of the results. The calls rarely recur for the same compound in another form.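 In K562 cells expressing nanoluciferase-fused kinases, luminescence was recorded at 4 h intervals between 2 and 18 h, normalized as percent of control with DMSO at 100% and a positive control at 0%. A significant (2 sigma) signal drop marks a time point as decreased. The authors' rule for a hit is not shown and takes in more than the number of time points.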

Sequences of proteins named here, by UniProt entry; tags and fusion partners are left off. A change or cut given only in a name is not applied to a line headed by its entry.
UniProt P00519, whole entry: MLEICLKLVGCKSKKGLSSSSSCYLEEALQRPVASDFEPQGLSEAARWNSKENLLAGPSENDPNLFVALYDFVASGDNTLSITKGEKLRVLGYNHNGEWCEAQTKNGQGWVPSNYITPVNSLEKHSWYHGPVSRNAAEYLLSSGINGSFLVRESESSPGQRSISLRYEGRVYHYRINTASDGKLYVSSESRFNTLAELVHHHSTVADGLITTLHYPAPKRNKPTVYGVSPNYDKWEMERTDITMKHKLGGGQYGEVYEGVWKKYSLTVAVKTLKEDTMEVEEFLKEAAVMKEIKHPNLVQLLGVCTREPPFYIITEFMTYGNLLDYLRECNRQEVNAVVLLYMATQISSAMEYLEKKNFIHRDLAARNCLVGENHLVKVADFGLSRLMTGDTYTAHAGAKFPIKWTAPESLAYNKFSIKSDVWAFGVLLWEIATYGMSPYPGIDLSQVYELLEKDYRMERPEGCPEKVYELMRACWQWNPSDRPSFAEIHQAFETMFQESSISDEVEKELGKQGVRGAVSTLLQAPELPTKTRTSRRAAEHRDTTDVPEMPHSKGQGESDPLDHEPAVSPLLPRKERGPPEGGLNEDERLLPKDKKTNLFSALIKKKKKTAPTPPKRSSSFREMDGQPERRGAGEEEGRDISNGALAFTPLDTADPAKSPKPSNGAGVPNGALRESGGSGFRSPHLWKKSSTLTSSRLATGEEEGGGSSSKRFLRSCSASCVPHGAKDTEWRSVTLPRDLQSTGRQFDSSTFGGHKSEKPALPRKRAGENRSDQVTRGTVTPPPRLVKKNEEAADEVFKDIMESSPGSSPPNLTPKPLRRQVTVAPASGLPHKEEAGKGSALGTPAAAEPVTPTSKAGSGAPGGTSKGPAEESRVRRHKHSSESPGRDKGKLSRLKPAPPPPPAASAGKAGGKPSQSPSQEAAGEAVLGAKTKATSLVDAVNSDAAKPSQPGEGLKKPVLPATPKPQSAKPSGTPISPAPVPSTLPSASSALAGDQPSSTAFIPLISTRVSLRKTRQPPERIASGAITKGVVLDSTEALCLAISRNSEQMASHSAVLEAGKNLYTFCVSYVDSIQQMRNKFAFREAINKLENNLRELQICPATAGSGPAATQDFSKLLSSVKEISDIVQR
UniProt P31749: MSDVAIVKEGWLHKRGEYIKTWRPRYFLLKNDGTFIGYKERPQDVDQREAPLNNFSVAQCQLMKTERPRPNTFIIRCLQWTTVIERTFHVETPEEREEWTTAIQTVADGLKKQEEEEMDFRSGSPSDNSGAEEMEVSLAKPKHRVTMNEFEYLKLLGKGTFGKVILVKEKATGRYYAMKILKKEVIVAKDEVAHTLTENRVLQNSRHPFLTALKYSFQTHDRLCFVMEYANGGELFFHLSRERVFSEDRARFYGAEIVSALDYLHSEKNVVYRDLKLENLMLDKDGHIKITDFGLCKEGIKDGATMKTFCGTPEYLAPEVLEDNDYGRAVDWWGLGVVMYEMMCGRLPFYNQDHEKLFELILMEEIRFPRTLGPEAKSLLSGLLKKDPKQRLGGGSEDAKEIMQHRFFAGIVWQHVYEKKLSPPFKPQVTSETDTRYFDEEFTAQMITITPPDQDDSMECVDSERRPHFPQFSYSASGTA
UniProt Q9UM73: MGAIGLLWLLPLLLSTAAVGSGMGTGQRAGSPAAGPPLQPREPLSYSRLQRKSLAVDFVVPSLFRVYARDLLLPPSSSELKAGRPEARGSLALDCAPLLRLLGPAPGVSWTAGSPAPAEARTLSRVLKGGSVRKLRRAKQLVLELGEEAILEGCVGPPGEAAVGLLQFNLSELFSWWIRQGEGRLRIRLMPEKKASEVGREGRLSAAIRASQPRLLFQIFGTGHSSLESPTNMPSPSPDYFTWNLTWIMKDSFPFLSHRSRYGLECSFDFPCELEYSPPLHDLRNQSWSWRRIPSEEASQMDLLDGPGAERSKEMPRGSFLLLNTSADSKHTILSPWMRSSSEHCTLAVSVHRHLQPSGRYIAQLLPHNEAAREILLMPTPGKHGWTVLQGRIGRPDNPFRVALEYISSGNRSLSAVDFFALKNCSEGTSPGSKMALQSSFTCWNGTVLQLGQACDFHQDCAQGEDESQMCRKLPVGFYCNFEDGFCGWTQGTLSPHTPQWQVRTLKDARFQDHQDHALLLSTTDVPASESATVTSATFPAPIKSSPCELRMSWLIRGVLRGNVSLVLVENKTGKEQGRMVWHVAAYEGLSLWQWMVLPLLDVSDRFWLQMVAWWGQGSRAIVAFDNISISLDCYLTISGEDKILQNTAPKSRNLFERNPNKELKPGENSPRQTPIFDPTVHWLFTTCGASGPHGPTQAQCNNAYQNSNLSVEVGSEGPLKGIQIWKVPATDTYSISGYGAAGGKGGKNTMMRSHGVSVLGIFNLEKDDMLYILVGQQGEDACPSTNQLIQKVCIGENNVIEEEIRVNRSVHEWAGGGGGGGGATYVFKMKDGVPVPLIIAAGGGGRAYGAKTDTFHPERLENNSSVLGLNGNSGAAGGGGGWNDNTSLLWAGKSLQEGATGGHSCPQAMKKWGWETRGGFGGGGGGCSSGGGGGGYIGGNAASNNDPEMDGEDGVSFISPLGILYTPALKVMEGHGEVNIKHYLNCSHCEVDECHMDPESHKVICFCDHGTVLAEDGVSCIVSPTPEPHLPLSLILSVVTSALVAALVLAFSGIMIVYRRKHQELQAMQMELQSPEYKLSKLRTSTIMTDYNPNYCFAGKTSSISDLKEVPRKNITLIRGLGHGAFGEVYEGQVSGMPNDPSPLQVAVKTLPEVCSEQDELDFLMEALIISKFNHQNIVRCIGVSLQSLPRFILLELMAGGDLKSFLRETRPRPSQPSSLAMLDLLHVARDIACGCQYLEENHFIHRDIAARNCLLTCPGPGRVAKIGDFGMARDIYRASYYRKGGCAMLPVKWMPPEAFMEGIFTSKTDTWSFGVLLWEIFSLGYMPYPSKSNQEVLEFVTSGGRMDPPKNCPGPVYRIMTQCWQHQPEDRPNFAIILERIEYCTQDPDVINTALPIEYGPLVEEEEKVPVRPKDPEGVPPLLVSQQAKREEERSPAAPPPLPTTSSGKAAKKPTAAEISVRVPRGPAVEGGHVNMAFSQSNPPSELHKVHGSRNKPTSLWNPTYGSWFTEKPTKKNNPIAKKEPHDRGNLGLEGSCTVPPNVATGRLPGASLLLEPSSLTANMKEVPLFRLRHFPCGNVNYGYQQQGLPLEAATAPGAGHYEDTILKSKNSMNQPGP
UniProt Q9UQB9: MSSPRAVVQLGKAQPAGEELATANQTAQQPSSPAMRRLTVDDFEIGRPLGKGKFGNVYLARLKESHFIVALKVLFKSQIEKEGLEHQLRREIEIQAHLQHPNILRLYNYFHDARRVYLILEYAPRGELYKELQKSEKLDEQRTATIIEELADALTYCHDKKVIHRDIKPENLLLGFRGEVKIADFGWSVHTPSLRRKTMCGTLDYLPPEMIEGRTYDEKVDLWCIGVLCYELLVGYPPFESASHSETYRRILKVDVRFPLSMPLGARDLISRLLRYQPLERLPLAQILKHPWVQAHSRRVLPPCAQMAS
UniProt P51813: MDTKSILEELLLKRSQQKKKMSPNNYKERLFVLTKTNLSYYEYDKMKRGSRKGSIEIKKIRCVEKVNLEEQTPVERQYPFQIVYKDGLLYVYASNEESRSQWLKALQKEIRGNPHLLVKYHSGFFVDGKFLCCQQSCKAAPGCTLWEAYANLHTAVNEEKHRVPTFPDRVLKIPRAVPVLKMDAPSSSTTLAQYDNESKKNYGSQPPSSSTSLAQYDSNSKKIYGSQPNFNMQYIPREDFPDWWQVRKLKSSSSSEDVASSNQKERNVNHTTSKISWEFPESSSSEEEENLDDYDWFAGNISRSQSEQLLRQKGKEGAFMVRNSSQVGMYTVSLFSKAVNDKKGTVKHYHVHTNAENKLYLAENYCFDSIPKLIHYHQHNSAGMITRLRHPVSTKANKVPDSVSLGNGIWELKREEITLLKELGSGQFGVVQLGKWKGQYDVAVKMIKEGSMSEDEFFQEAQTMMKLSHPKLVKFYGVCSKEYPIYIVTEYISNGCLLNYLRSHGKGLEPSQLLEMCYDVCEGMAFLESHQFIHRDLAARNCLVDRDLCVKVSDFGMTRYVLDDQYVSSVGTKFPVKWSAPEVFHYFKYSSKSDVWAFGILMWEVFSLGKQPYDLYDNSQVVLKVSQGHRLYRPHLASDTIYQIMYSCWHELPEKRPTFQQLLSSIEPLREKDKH
UniProt Q9UQM7, whole entry: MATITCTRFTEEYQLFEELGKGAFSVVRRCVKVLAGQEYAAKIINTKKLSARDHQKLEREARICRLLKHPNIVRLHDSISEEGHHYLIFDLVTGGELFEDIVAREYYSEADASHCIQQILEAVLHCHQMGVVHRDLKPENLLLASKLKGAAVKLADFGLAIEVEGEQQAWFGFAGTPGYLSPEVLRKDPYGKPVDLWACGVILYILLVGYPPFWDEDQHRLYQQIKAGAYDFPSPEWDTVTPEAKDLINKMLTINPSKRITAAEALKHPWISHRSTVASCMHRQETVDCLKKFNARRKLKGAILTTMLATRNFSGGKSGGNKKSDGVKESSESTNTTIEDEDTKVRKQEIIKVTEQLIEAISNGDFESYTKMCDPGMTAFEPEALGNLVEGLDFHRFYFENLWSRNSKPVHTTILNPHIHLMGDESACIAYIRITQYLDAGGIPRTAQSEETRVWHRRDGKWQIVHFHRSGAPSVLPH
UniProt Q13555: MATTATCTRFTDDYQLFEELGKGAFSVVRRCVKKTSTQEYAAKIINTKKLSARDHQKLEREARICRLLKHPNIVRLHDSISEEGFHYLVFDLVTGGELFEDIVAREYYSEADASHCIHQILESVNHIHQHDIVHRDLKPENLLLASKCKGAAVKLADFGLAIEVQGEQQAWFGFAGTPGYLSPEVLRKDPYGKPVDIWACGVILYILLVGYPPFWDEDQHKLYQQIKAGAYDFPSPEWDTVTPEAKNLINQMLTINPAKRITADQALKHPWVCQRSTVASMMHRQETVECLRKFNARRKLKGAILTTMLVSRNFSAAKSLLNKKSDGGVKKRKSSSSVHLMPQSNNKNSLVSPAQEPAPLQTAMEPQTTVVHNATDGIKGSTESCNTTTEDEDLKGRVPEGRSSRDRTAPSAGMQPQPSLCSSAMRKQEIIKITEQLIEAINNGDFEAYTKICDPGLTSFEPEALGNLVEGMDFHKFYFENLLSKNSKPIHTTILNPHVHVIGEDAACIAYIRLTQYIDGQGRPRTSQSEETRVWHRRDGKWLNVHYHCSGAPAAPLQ
UniProt Q15131: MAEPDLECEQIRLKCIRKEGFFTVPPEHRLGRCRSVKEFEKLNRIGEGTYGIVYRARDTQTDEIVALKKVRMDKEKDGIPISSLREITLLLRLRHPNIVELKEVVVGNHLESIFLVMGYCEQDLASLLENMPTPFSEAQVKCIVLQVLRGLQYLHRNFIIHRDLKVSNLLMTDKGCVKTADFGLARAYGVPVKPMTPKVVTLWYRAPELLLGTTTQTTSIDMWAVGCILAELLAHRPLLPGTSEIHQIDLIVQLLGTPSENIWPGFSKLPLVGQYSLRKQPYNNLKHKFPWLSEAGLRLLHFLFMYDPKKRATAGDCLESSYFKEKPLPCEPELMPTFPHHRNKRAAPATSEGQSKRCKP
UniProt P11802: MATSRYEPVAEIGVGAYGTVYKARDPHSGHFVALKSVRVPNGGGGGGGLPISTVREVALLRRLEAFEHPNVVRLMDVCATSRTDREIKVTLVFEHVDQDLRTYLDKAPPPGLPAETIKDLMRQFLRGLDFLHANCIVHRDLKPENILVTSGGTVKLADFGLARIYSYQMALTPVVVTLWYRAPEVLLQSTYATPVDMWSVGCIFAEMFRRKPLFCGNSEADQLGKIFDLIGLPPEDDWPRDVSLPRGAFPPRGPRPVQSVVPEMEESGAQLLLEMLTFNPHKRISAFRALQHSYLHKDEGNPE
UniProt Q00535, whole entry, looked up: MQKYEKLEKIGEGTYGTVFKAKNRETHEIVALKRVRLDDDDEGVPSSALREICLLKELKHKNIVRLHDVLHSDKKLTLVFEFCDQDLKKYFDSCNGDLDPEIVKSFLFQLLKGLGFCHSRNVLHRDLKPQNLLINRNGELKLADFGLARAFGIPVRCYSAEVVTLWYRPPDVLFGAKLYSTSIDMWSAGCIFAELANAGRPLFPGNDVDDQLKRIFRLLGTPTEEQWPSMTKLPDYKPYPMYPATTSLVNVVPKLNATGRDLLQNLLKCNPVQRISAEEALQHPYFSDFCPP
UniProt Q00534, whole entry: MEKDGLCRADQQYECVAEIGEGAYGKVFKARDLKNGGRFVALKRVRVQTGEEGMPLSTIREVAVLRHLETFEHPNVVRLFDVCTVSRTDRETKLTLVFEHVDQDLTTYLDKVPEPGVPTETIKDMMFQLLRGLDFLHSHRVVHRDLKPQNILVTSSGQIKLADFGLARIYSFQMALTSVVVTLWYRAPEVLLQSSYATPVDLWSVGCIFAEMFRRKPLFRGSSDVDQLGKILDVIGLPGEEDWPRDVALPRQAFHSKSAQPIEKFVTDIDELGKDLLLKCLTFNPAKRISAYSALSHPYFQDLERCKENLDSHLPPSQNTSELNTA

Columns and labels:
Test in all cases: kinase-Nluc reporter destabilization hit call (1 = scored as downregulated) (binary); higher = compound decreases kinase abundance
Settings in all cases: K562; 2-18 h
[1] = biological target: ABL1 (UniProt P00519)
[2] = biological target: AKT1 (UniProt P31749)
[3] = biological target: ALK (UniProt Q9UM73)
[4] = biological target: ARAF (UniProt P10398)
[5] = biological target: AURKA (UniProt O14965)
[6] = biological target: AURKB (UniProt Q96GD4)
[7] = biological target: AURKC (UniProt Q9UQB9)
[8] = biological target: BLK (UniProt P51451)
[9] = biological target: BMX (UniProt P51813)
[10] = biological target: BRAF (UniProt P15056)
[11] = system: BRAF_V600E
[12] = biological target: BTK (UniProt Q06187)
[13] = biological target: CAMK2A (UniProt Q9UQM7)
[14] = biological target: CAMK2G (UniProt Q13555)
[15] = biological target: CDK10 (UniProt Q15131)
[16] = biological target: CDK2 (UniProt P24941)
[17] = biological target: CDK3 (UniProt Q00526)
[18] = biological target: CDK4 (UniProt P11802)
[19] = biological target: CDK5 (UniProt Q00535)
[20] = biological target: CDK6 (UniProt Q00534)

Measured: kinase-Nluc reporter destabilization hit call

COc1cc(N2CCC(N3CCN(C)CC3)CC2)ccc1Nc1ncnc(Nc2ccccc2S(=O)(=O)C(C)C)n1 (10 µM)
inactive: [1] 0 | [2] 0 | [3] 0 | [4] 0 | [5] 0 | [6] 0 | [7] 0 | [8] 0 | [9] 0 | [10] 0 | [11] 0 | [12] 0 | [13] 0 | [14] 0 | [15] 0 | [16] 0 | [17] 0 | [18] 0 | [19] 0 | [20] 0

CN(C)c1cc[n+](Cc2ccc(OCCOc3ccc(C[n+]4ccc(N(C)C)cc4)cc3)cc2)cc1 (10 µM)
inactive: [1] 0 | [2] 0 | [3] 0 | [4] 0 | [5] 0 | [6] 0 | [7] 0 | [8] 0 | [9] 0 | [10] 0 | [11] 0 | [12] 0 | [13] 0 | [14] 0 | [15] 0 | [16] 0 | [17] 0 | [18] 0 | [19] 0 | [20] 0

N#Cc1cnc(Nc2cc(NC[C@H]3CNCCO3)c(C(F)(F)F)cn2)cn1 (10 µM)
inactive: [1] 0 | [2] 0 | [3] 0 | [4] 0 | [5] 0 | [6] 0 | [7] 0 | [8] 0 | [9] 0 | [10] 0 | [11] 0 | [12] 0 | [13] 0 | [14] 0 | [15] 0 | [16] 0 | [17] 0 | [18] 0 | [19] 0 | [20] 0

NCCNS(=O)(=O)c1ccc(Cl)c2ccncc12 [CKI-7 (free base)] (10 µM)
inactive: [1] 0 | [2] 0 | [3] 0 | [4] 0 | [5] 0 | [6] 0 | [7] 0 | [8] 0 | [9] 0 | [10] 0 | [11] 0 | [12] 0 | [13] 0 | [14] 0 | [15] 0 | [16] 0 | [17] 0 | [18] 0 | [19] 0 | [20] 0

CCc1cc(Nc2nccc(-c3c(-c4ccc(OC)c(C(=O)Nc5c(F)cccc5F)c4)nc4ccccn34)n2)c(OC)cc1N1CCC(N2CCN(S(C)(=O)=O)CC2)CC1 (2.5 µM)
inactive: [1] 0 | [2] 0 | [3] 0 | [4] 0 | [5] 0 | [6] 0 | [7] 0 | [8] 0 | [9] 0 | [10] 0 | [11] 0 | [12] 0 | [13] 0 | [14] 0 | [15] 0 | [16] 0 | [17] 0 | [18] 0 | [19] 0 | [20] 0

CS(=O)(=O)c1ccc([C@@H](CC2CCCC2)C(=O)Nc2nccs2)cc1 (10 µM)
inactive: [1] 0 | [2] 0 | [3] 0 | [4] 0 | [5] 0 | [6] 0 | [7] 0 | [8] 0 | [9] 0 | [10] 0 | [11] 0 | [12] 0 | [13] 0 | [14] 0 | [15] 0 | [16] 0 | [17] 0 | [18] 0 | [19] 0 | [20] 0

O=[N+]([O-])c1ccc(-c2nc(-c3ccc(F)cc3)c(-c3ccncc3)[nH]2)cc1 (10 µM)
inactive: [1] 0 | [2] 0 | [3] 0 | [4] 0 | [5] 0 | [6] 0 | [7] 0 | [8] 0 | [9] 0 | [10] 0 | [11] 0 | [12] 0 | [13] 0 | [14] 0 | [15] 0 | [16] 0 | [17] 0 | [18] 0 | [19] 0 | [20] 0

COc1ccc2cc1Oc1ccc(cc1)C[C@H]1c3cc(c(OC)cc3CCN1C)Oc1c(O)c(OC)cc3c1[C@H](C2)N(C)CC3 [Fangchinoline] (2.5 µM)
inactive: [1] 0 | [2] 0 | [3] 0 | [4] 0 | [5] 0 | [6] 0 | [7] 0 | [8] 0 | [9] 0 | [10] 0 | [11] 0 | [12] 0 | [13] 0 | [14] 0 | [15] 0 | [16] 0 | [17] 0 | [18] 0 | [19] 0 | [20] 0

C=CC(=O)Nc1cc(Nc2nccc(-c3cn(C)c4ccccc34)n2)c(OCC(F)(F)F)nc1N(C)CCNC [AST5902  (trimesylate)] (2.5 µM)
inactive: [1] 0 | [2] 0 | [3] 0 | [4] 0 | [5] 0 | [6] 0 | [7] 0 | [8] 0 | [9] 0 | [10] 0 | [11] 0 | [12] 0 | [13] 0 | [14] 0 | [15] 0 | [16] 0 | [17] 0 | [18] 0 | [19] 0 | [20] 0

COc1cc2ncnc(Nc3cc(Br)c(O)c(Br)c3)c2cc1OC (2.5 µM)
inactive: [1] 0 | [2] 0 | [3] 0 | [4] 0 | [5] 0 | [6] 0 | [7] 0 | [8] 0 | [9] 0 | [10] 0 | [11] 0 | [12] 0 | [13] 0 | [14] 0 | [15] 0 | [16] 0 | [17] 0 | [18] 0 | [19] 0 | [20] 0

Ordered by length of the SMILES (falling): three of the compounds above.
CCc1cc(Nc2nccc(-c3c(-c4ccc(OC)c(C(=O)Nc5c(F)cccc5F)c4)nc4ccccn34)n2)c(OC)cc1N1CCC(N2CCN(S(C)(=O)=O)CC2)CC1 (2.5 µM)
inactive: [1] 0 | [2] 0 | [3] 0 | [4] 0 | [5] 0 | [6] 0 | [7] 0 | [8] 0 | [9] 0 | [10] 0 | [11] 0 | [12] 0 | [13] 0 | [14] 0 | [15] 0 | [16] 0 | [17] 0 | [18] 0 | [19] 0 | [20] 0

COc1ccc2cc1Oc1ccc(cc1)C[C@H]1c3cc(c(OC)cc3CCN1C)Oc1c(O)c(OC)cc3c1[C@H](C2)N(C)CC3 [Fangchinoline] (2.5 µM)
inactive: [1] 0 | [2] 0 | [3] 0 | [4] 0 | [5] 0 | [6] 0 | [7] 0 | [8] 0 | [9] 0 | [10] 0 | [11] 0 | [12] 0 | [13] 0 | [14] 0 | [15] 0 | [16] 0 | [17] 0 | [18] 0 | [19] 0 | [20] 0

COc1cc2ncnc(Nc3cc(Br)c(O)c(Br)c3)c2cc1OC (2.5 µM)
inactive: [1] 0 | [2] 0 | [3] 0 | [4] 0 | [5] 0 | [6] 0 | [7] 0 | [8] 0 | [9] 0 | [10] 0 | [11] 0 | [12] 0 | [13] 0 | [14] 0 | [15] 0 | [16] 0 | [17] 0 | [18] 0 | [19] 0 | [20] 0

Next part

CC(=O)O/N=C1/C(c2c(O)[nH]c3cc(Br)ccc23)=Nc2ccccc21 [BIO-acetoxime] (10 µM)
inactive: [1] 0 | [2] 0 | [3] 0 | [4] 0 | [5] 0 | [6] 0 | [7] 0 | [8] 0 | [9] 0 | [10] 0 | [11] 0 | [12] 0 | [13] 0 | [14] 0 | [15] 0 | [16] 0 | [17] 0 | [18] 0 | [19] 0 | [20] 0

CC(C)(CCCCCC(O)CCCCCC(C)(C)C(=O)O)C(=O)O [Bempedoic acid] (10 µM)
inactive: [1] 0 | [2] 0 | [3] 0 | [4] 0 | [5] 0 | [6] 0 | [7] 0 | [8] 0 | [9] 0 | [10] 0 | [11] 0 | [12] 0 | [13] 0 | [14] 0 | [15] 0 | [16] 0 | [17] 0 | [18] 0 | [19] 0 | [20] 0

Fc1ccc(Cl)cc1-c1nc(Nc2ccncc2)c2nccnc2n1 (10 µM)
inactive: [1] 0 | [2] 0 | [3] 0 | [4] 0 | [5] 0 | [6] 0 | [7] 0 | [8] 0 | [9] 0 | [10] 0 | [11] 0 | [12] 0 | [13] 0 | [14] 0 | [15] 0 | [16] 0 | [17] 0 | [18] 0 | [19] 0 | [20] 0

CC(C1CC1)n1cnc2c(NCc3cccc(C(F)(F)F)c3)nc(NCCN(C)C)nc21 (stereo not given) (10 µM)
inactive: [1] 0 | [2] 0 | [3] 0 | [4] 0 | [5] 0 | [6] 0 | [7] 0 | [8] 0 | [9] 0 | [10] 0 | [11] 0 | [12] 0 | [13] 0 | [14] 0 | [15] 0 | [16] 0 | [17] 0 | [18] 0 | [19] 0 | [20] 0

CN(C)c1ccc(/C=C2\C(=O)Nc3ccccc32)c2ccccc12 (10 µM)
inactive: [1] 0 | [2] 0 | [3] 0 | [4] 0 | [5] 0 | [6] 0 | [7] 0 | [8] 0 | [9] 0 | [10] 0 | [11] 0 | [12] 0 | [13] 0 | [14] 0 | [15] 0 | [16] 0 | [17] 0 | [18] 0 | [19] 0 | [20] 0

CC(C)c1cc2c(c(O)c1O)[C@@]13CCCC(C)(C)[C@@H]1C[C@@H]2OC3=O [Carnosol] (2.5 µM)
inactive: [1] 0 | [2] 0 | [3] 0 | [4] 0 | [5] 0 | [6] 0 | [7] 0 | [8] 0 | [9] 0 | [10] 0 | [11] 0 | [12] 0 | [13] 0 | [14] 0 | [15] 0 | [16] 0 | [17] 0 | [18] 0 | [19] 0 | [20] 0

O=C(C#Cc1ccccc1)c1cccc([N+](=O)[O-])c1 (10 µM)
inactive: [1] 0 | [2] 0 | [3] 0 | [4] 0 | [5] 0 | [6] 0 | [7] 0 | [8] 0 | [9] 0 | [10] 0 | [11] 0 | [12] 0 | [13] 0 | [14] 0 | [15] 0 | [16] 0 | [17] 0 | [18] 0 | [19] 0 | [20] 0

CC(C)=CCC[C@](C)(O[C@@H]1O[C@H](CO[C@@H]2O[C@H](CO)[C@@H](O)[C@H](O)[C@H]2O)[C@@H](O)[C@H](O)[C@H]1O)[C@H]1CC[C@]2(C)[C@@H]1[C@H](O)C[C@@H]1[C@@]3(C)CC[C@H](O[C@@H]4O[C@H](CO)[C@@H](O)[C@H](O)[C@H]4O[C@@H]4O[C@H](CO)[C@@H](O)[C@H](O)[C@H]4O)C(C)(C)[C@@H]3CC[C@]12C [Ginsenoside Rb1] (10 µM)
inactive: [1] 0 | [2] 0 | [3] 0 | [4] 0 | [5] 0 | [6] 0 | [7] 0 | [8] 0 | [9] 0 | [10] 0 | [11] 0 | [12] 0 | [13] 0 | [14] 0 | [15] 0 | [16] 0 | [17] 0 | [18] 0 | [19] 0 | [20] 0
